Laboratory results taken from patent publication US20200297601A1, “COMPOSITION FOR SKIN MOISTURIZATION OR SKIN WHITENING, CONTAINING PENTACYCLIC TRITERPENE CAFFEIC ACID ESTERS” (AMOREPACIFIC CORPORATION, priority 2016, published 2020).
Some of these results come from one statement about several compounds together.

System: B16 melanoma cells
Assay: Melanin assay using B16 melanoma cells
Type: cell-based
Settings: cultured 6 days, melanin normalized to total protein, FIG. 4

For “3β,23,28-Trihydroxy-12-oleanene 23-caffeate [Example 1]”, which “skin whitening effect (melanin content)” value is on record?
Its value is “superior skin whitening effect as compared to Comparative Example 1 and the positive control group”.
